{"source": "PubChem BioAssay AID720505 (Drosophila RNAi Screening Center, 2013)", "test": "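Genes needed for store-operated calcium entry in fly cells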 (primary screen)", "cell system": "Drosophila S2R+ cells", "reagent": "long dsRNA against Drosophila genes", "conditions": "thapsigargin (2 µM) in calcium-free buffer to empty internal stores, then 2 mM calcium added back", "measurement": "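Fluo-4 signal in 384-well plates read on a FLIPR after thapsigargin (2 µM, calcium-free) store depletion and 2 mM calcium add-back; unnormalised mean endpoint per well; screen run twice, selected wells retested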", "direction": "calcium signal and retest calcium signal: higher = more calcium entry after store depletion", "call rule": "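Knock-downs counted as hits when calcium entry dropped relative to STIM1 positive and Rho1 negative controls present on each plate; roughly 1500 genes called, with reductions of differing size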", "calls": "active = called as lowering calcium entry; inactive = not called", "note": "The screen tested about 20,000 reagents; below is a random part of those with a known target gene and a result. In the full data, about 2,100 (10%) are marked active. 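Raw plate signals without normalisation; calls rest on control-based scores that were not deposited; replicate 2 separates called from uncalled poorly.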 Not given: the amount of reagent, the time to read-out."}
{"target gene": "CG6362", "dsRNA": "DRSC07413", "calcium signal, replicate 1": 157, "calcium signal, replicate 2": 127, "Call": "inactive"}
{"target gene": "Nedd8", "dsRNA": "DRSC02092", "calcium signal, replicate 1": 113, "calcium signal, replicate 2": 111, "Call": "inactive"}
{"target gene": "Pyroxd1", "dsRNA": "DRSC02098", "calcium signal, replicate 1": 149, "calcium signal, replicate 2": 135, "Call": "inactive"}
{"target gene": "Gyf", "dsRNA": "DRSC17202", "calcium signal, replicate 1": 114, "calcium signal, replicate 2": 132, "Call": "inactive"}
{"target gene": "CG14983", "dsRNA": "DRSC08441", "calcium signal, replicate 1": 93.5, "calcium signal, replicate 2": 81.3, "Call": "inactive"}
{"target gene": "CG34304 (retired record)", "dsRNA": "DRSC12810", "Call": "inactive"}
{"target gene": "SIFa", "dsRNA": "DRSC04480", "calcium signal, replicate 1": 166, "calcium signal, replicate 2": 207, "Call": "inactive"}
{"target gene": "cg", "dsRNA": "DRSC07650", "calcium signal, replicate 1": 72.6, "calcium signal, replicate 2": 154, "Call": "inactive"}
{"target gene": "cg", "dsRNA": "DRSC23142", "calcium signal, replicate 1": 111, "calcium signal, replicate 2": 125, "Call": "inactive"}
{"target gene": "RNaseZ", "dsRNA": "DRSC06845", "calcium signal, replicate 1": 125, "calcium signal, replicate 2": 116, "Call": "inactive"}
{"target gene": "mre11", "dsRNA": "DRSC03570", "calcium signal, replicate 1": 89, "calcium signal, replicate 2": 118, "retest calcium signal, replicate 1": 83, "retest calcium signal, replicate 2": 95.7, "Call": "inactive"}
{"target gene": "mre11", "dsRNA": "DRSC22628", "calcium signal, replicate 1": 119, "calcium signal, replicate 2": 222, "Call": "inactive"}

Continued (3 carried over from the part before).
{"target gene": "RNaseZ", "dsRNA": "DRSC06845", "calcium signal, replicate 1": 125, "calcium signal, replicate 2": 116, "Call": "inactive"}
{"target gene": "mre11", "dsRNA": "DRSC03570", "calcium signal, replicate 1": 89, "calcium signal, replicate 2": 118, "retest calcium signal, replicate 1": 83, "retest calcium signal, replicate 2": 95.7, "Call": "inactive"}
{"target gene": "mre11", "dsRNA": "DRSC22628", "calcium signal, replicate 1": 119, "calcium signal, replicate 2": 222, "Call": "inactive"}
{"target gene": "Dnaaf6", "dsRNA": "DRSC10473", "calcium signal, replicate 1": 84.9, "calcium signal, replicate 2": 135, "Call": "inactive"}
{"target gene": "CG9630", "dsRNA": "DRSC16527", "calcium signal, replicate 1": 90, "calcium signal, replicate 2": 112, "Call": "inactive"}
{"target gene": "THG", "dsRNA": "DRSC01896", "calcium signal, replicate 1": 99, "calcium signal, replicate 2": 85.5, "Call": "inactive"}
{"target gene": "yellow-f", "dsRNA": "DRSC15348", "calcium signal, replicate 1": 105, "calcium signal, replicate 2": 95.7, "Call": "inactive"}
{"target gene": "SecCl", "dsRNA": "DRSC10887", "calcium signal, replicate 1": 101, "calcium signal, replicate 2": 188, "Call": "inactive"}
{"target gene": "CG32812", "dsRNA": "DRSC18478", "calcium signal, replicate 1": 99.9, "calcium signal, replicate 2": 128, "Call": "inactive"}
{"target gene": "ppk24", "dsRNA": "DRSC15093", "calcium signal, replicate 1": 235, "calcium signal, replicate 2": 121, "Call": "inactive"}
{"target gene": "Non1", "dsRNA": "DRSC05954", "calcium signal, replicate 1": 170, "calcium signal, replicate 2": 104, "Call": "inactive"}
{"target gene": "toe", "dsRNA": "DRSC09783", "calcium signal, replicate 1": 104, "calcium signal, replicate 2": 82.2, "Call": "inactive"}
{"target gene": "CG42361", "dsRNA": "DRSC04391", "calcium signal, replicate 1": 130, "calcium signal, replicate 2": 210, "Call": "inactive"}
{"target gene": "UQCR-14", "dsRNA": "DRSC19870", "calcium signal, replicate 1": 99.8, "calcium signal, replicate 2": 128, "Call": "inactive"}
{"target gene": "Tango14", "dsRNA": "DRSC00667", "calcium signal, replicate 1": 214, "calcium signal, replicate 2": 140, "Call": "inactive"}
{"target gene": "ND-20L", "dsRNA": "DRSC15414", "calcium signal, replicate 1": 156, "calcium signal, replicate 2": 153, "Call": "inactive"}
{"target gene": "CG5180", "dsRNA": "DRSC15731", "calcium signal, replicate 1": 230, "calcium signal, replicate 2": 179, "Call": "inactive"}
{"target gene": "Gr93a", "dsRNA": "DRSC14593", "calcium signal, replicate 1": 260, "calcium signal, replicate 2": 187, "Call": "inactive"}
{"target gene": "Ttc26", "dsRNA": "DRSC15591", "calcium signal, replicate 1": 99.5, "calcium signal, replicate 2": 145, "Call": "inactive"}
